Where a chain is given by its changes, count along the chain named. Results are given in words; binding and its absence hold for the method and conditions named. Binding seen in cells or lysates may run through a third protein. Some binding calls cover weakened binding; strength is not graded here. Where a sequence is shown, tags or fusion partners need not be part of it. Each block holds one binder with its values, some of them ahead of it.
Columns and labels:
Assay in all cases: co-IP; HA-tagged SEPT6, SEPT6-4KR, SEPT7 or SEPT7-5KR with endogenous septins (supplemental Fig. S5B, D); the text does not name the method or the cells for these panels
HA-tagged SEPT7 (human) = target: T1, HA-tagged SEPT7 (human) (UniProt Q16181)
T1 sequence: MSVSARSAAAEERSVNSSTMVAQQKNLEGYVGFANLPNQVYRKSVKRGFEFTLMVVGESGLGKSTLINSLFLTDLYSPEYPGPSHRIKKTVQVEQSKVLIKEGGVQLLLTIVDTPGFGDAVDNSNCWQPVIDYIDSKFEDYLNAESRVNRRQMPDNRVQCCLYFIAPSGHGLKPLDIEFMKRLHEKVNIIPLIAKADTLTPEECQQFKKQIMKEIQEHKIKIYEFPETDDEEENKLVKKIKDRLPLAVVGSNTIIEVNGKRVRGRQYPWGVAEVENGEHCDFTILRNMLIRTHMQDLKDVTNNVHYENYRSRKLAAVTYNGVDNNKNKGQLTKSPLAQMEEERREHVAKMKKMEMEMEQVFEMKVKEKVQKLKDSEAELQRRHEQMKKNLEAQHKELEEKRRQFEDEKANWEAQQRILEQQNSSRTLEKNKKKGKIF

[1] = target: T2, HA-tagged SEPT7 quintuple mutant SEPT7-5KR (K429/431/432/433/435R) (human) (UniProt Q16181)
T2 sequence: T1 sequence with K429R, K431R, K432R, K433R, K435R

HA-tagged SEPT6 (human) = target: T3, HA-tagged SEPT6 (human) (UniProt Q14141)
T3 sequence: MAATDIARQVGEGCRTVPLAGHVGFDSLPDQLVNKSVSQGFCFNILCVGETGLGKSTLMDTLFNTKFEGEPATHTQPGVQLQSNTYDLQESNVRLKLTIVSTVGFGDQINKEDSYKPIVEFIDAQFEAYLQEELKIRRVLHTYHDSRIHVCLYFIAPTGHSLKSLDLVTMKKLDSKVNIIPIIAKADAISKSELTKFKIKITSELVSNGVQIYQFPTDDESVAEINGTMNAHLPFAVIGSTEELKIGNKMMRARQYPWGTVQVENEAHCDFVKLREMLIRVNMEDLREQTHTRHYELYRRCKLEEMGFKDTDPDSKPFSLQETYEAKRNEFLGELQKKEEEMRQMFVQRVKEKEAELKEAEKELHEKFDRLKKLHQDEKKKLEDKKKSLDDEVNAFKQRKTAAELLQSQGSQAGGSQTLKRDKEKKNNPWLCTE

[2] = target: T4, HA-tagged SEPT7 (human), Q16181; settings: remark: other sources report otherwise
T4 chain: T1 sequence

[3] = target: T5, HA-tagged SEPT6 (human), Q14141; settings: remark: other sources report otherwise
T5 chain: T3 sequence

B1: endogenous SEPT6 (protein, UniProt Q14141 1-434)
chain: T3 sequence
binding (HA-tagged SEPT7 (human)): binds
binding [1]: binds

B2: endogenous SEPT2 (protein, UniProt Q15019 1-361)
chain: MSKQQPTQFINPETPGYVGFANLPNQVHRKSVKKGFEFTLMVVGESGLGKSTLINSLFLTDLYPERVIPGAAEKIERTVQIEASTVEIEERGVKLRLTVVDTPGYGDAINCRDCFKTIISYIDEQFERYLHDESGLNRRHIIDNRVHCCFYFISPFGHGLKPLDVAFMKAIHNKVNIVPVIAKADTLTLKERERLKKRILDEIEEHNIKIYHLPDAESDEDEDFKEQTRLLKASIPFSVVGSNQLIEAKGKKVRGRLYPWGVVEVENPEHNDFLKLRTMLITHMQDLQEVTQDLHYENFRSERLKRGGRKVENEDMNKDQILLEKEAELRRMQEMIARMQAQMQMQMQGGDGDGGALGHHV
binding (HA-tagged SEPT6 (human)): binds
binding [1]: binds

B3: endogenous SEPT2, Q15019 1-361 (protein)
chain: B2 chain
binding [2]: binds

B6: endogenous SEPT7 (protein, UniProt Q16181 1-437)
chain: T1 sequence
binding (HA-tagged SEPT6 (human)): binds

More lines, now with the values ahead:

binding (HA-tagged SEPT7 (human)): binds
binding [1]: binds
B4: endogenous SEPT9 (protein, UniProt Q9UHD8 1-586)
chain: MKKSYSGGTRTSSGRLRRLGDSSGPALKRSFEVEEVETPNSTPPRRVQTPLLRATVASSTQKFQDLGVKNSEPSARHVDSLSQRSPKASLRRVELSGPKAAEPVSRRTELSIDISSKQVENAGAIGPSRFGLKRAEVLGHKTPEPAPRRTEITIVKPQESAHRRMEPPASKVPEVPTAPATDAAPKRVEIQMPKPAEAPTAPSPAQTLENSEPAPVSQLQSRLEPKPQPPVAEATPRSQEATEAAPSCVGDMADTPRDAGLKQAPASRNEKAPVDFGYVGIDSILEQMRRKAMKQGFEFNIMVVGQSGLGKSTLINTLFKSKISRKSVQPTSEERIPKTIEIKSITHDIEEKGVRMKLTVIDTPGFGDHINNENCWQPIMKFINDQYEKYLQEEVNINRKKRIPDTRVHCCLYFIPATGHSLRPLDIEFMKRLSKVVNIVPVIAKADTLTLEERVHFKQRITADLLSNGIDVYPQKEFDEDSEDRLVNEKFREMIPFAVVGSDHEYQVNGKRILGRKTKWGTIEVENTTHCEFAYLRDLLIRTHMQNIKDITSSIHFEAYRVKRLNEGSSAMANGMEEKEPEAPEM

binding [3]: binds
B5: endogenous SEPT9, Q9UHD8 1-586 (protein)
chain: B4 chain

From paper PMC10924143
